# Source: PMC6513905
# Chains of the proteins cited; added tags and fusions are not shown. Lines headed by an entry give the natural chain unless they say otherwise; changes in a name come on top.
# UniProt Q10RP0: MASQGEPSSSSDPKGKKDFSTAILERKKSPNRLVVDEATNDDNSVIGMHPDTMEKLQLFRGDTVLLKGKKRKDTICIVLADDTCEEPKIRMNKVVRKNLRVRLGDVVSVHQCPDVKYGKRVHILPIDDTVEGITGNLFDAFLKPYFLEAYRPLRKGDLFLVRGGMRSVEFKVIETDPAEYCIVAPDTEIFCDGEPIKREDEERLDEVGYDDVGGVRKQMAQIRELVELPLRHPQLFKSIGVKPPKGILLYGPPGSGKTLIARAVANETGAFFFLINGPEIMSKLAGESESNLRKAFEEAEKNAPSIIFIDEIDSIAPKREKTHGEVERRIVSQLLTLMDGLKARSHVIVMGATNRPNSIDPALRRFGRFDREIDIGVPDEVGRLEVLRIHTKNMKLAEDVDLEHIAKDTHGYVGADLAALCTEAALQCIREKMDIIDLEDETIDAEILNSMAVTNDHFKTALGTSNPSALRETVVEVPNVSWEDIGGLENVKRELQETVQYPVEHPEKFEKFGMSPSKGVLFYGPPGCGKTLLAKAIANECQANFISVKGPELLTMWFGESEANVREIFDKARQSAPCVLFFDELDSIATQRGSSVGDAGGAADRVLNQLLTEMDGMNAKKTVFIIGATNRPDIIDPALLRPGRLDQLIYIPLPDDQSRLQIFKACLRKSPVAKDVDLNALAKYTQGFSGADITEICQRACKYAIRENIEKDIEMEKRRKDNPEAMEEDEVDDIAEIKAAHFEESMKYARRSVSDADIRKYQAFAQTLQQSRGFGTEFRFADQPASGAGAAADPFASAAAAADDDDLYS
# UniProt A0A4D6C9S8: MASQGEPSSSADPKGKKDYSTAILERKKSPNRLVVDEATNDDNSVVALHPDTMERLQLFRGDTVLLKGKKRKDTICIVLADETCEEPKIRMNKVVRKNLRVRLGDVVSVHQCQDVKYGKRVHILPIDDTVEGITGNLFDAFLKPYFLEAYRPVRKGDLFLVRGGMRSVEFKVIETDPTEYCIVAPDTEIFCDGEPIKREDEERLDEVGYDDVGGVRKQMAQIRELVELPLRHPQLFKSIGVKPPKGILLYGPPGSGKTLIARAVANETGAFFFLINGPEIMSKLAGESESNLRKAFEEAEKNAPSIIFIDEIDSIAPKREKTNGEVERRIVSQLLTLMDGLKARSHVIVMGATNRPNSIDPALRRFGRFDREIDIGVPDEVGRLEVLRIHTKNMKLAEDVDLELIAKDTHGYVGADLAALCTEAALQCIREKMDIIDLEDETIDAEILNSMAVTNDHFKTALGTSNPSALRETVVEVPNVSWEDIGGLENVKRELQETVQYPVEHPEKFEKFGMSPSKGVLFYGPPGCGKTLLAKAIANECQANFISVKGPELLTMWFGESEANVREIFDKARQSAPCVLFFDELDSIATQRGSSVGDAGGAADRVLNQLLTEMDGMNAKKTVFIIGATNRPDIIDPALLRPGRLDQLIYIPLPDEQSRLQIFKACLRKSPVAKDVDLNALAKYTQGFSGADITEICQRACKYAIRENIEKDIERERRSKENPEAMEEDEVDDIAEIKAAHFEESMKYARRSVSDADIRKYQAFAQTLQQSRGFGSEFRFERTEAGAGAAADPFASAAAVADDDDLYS
# Molecular target: GST-CDC48 (rice (Oryza sativa L.)) (UniProt Q10RP0)
# Experiment: pull-down; Glutathione magnetic agarose beads with 500 µg of each recombinant protein (GST-tagged and His-tagged) in 600 µL buffer (50 mM Tris-HCl pH 7.5, 5% glycerol, 1 mM EDTA, 1 mM DTT, 1 mM PMSF, 0.01% Nonidet P-40, 150 mM KCl), 4 °C, 2 h; blots with anti-GST and anti-His; both purified
row,binding,Substance
1,binds,His-CDC48 (from UniProt Q10RP0)
2,binds,His-CDC48E (from UniProt A0A4D6C9S8)

# These are yes or no findings as the source states them, for the method shown. A result given as binding can be weak or reduced; the word gives no strength.
